The chains behind the UniProt entries cited, without tags or fusion partners. Residues count along the entry.
UniProt Q5NH77, 1-228: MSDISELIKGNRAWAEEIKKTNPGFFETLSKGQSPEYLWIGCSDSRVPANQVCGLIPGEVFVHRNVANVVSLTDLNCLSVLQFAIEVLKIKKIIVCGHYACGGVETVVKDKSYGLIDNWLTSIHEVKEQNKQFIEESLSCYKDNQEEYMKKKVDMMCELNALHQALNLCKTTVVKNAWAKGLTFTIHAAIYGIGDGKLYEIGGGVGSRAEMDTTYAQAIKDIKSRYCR

According to paper PMC6830296 (Journal of Enzyme Inhibition and Medicinal Chemistry, 2019):

Biological target: T1, FtuβCA (Francisella tularensis, UniProt Q5NH77)
T1 construct: gene cynT
Type: biochemical
Conditions: read-out: KI (μM)^a / FtuβCA; CO2 hydration, TRIS pH 8.3, 20 mM Na2SO4, 1 h preincubation at room temperature

CC(=O)Nc1nnc(S(N)(=O)=O)s1 [AAZ, acetazolamide, reference compound]
Ki: 0.77 µM
